Consider four substances from article PMC9039736, “Identifying novel SMYD3 interactors on the trail of cancer hallmarks” (Computational and Structural Biotechnology Journal, 2022).

Protein sequences, listed by entry. Tags and fused reporters are not part of them. Residues count along the entry.
UniProt P54132: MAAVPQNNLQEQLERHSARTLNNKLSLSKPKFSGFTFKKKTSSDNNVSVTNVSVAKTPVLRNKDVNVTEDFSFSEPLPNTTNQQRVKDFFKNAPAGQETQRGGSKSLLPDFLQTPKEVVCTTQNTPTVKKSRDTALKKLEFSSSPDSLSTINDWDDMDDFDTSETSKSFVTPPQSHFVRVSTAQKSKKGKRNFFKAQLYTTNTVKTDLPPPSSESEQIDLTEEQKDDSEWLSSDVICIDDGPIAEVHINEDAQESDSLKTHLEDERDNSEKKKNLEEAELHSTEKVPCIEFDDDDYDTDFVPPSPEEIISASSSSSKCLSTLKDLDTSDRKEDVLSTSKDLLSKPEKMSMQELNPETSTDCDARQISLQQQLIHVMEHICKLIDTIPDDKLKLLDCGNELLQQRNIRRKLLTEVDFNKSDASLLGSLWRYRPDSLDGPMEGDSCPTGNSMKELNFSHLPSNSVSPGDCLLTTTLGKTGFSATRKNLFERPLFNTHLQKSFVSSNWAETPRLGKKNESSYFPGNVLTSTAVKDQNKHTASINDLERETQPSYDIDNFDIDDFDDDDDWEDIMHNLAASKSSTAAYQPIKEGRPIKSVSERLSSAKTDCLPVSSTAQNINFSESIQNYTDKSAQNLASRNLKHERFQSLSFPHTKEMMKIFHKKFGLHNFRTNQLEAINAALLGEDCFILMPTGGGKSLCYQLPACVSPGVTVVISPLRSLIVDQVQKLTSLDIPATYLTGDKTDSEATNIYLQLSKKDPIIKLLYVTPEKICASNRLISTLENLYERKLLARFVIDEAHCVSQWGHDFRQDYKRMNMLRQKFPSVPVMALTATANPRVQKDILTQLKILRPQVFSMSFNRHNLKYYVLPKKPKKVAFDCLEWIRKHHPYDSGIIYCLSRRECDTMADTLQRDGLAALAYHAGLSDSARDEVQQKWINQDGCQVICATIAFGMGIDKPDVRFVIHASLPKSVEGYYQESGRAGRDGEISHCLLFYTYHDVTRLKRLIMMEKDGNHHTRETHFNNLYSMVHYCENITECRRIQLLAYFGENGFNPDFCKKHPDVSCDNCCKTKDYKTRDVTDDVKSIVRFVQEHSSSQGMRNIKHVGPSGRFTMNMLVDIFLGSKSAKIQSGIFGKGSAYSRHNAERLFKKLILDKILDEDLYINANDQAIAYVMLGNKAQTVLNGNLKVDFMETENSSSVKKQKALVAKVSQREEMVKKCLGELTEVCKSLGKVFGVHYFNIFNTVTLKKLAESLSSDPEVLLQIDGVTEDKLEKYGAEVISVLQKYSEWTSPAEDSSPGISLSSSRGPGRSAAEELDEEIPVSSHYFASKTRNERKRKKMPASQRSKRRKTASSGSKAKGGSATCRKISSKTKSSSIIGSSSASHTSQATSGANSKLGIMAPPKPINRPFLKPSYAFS
UniProt P08581, residues 25-1390: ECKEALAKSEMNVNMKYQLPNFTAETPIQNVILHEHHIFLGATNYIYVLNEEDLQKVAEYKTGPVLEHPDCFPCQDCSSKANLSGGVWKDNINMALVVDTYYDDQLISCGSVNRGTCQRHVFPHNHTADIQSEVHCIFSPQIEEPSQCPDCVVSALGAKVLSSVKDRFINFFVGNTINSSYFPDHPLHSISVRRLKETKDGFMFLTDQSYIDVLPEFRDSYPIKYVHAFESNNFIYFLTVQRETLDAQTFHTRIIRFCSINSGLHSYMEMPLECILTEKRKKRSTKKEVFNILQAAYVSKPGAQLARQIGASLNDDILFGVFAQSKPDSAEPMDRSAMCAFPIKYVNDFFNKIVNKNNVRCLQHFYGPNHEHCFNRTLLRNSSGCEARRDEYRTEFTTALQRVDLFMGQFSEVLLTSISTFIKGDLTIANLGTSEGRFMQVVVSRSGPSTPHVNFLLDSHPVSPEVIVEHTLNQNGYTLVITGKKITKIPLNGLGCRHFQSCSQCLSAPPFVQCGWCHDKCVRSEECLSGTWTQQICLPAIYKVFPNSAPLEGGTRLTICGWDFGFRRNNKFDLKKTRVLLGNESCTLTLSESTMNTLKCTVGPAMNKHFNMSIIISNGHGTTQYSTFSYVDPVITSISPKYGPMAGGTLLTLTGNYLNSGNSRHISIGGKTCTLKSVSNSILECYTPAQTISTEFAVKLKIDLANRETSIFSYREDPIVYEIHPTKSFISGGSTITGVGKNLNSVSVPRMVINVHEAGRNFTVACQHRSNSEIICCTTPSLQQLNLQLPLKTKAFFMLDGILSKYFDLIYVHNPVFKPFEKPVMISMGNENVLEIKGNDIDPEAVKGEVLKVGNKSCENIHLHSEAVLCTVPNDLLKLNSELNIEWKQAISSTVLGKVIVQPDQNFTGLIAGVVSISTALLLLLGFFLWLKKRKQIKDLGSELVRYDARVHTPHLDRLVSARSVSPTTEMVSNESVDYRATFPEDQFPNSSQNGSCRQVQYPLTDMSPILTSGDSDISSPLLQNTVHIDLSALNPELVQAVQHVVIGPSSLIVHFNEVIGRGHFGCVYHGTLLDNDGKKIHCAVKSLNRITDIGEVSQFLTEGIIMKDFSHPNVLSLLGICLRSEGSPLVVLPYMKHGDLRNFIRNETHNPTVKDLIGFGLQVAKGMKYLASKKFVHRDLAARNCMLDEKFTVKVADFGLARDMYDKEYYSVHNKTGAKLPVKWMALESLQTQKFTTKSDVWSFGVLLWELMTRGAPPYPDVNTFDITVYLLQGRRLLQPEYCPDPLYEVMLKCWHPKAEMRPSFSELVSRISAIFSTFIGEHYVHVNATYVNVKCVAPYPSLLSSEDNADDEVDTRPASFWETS
UniProt Q08999: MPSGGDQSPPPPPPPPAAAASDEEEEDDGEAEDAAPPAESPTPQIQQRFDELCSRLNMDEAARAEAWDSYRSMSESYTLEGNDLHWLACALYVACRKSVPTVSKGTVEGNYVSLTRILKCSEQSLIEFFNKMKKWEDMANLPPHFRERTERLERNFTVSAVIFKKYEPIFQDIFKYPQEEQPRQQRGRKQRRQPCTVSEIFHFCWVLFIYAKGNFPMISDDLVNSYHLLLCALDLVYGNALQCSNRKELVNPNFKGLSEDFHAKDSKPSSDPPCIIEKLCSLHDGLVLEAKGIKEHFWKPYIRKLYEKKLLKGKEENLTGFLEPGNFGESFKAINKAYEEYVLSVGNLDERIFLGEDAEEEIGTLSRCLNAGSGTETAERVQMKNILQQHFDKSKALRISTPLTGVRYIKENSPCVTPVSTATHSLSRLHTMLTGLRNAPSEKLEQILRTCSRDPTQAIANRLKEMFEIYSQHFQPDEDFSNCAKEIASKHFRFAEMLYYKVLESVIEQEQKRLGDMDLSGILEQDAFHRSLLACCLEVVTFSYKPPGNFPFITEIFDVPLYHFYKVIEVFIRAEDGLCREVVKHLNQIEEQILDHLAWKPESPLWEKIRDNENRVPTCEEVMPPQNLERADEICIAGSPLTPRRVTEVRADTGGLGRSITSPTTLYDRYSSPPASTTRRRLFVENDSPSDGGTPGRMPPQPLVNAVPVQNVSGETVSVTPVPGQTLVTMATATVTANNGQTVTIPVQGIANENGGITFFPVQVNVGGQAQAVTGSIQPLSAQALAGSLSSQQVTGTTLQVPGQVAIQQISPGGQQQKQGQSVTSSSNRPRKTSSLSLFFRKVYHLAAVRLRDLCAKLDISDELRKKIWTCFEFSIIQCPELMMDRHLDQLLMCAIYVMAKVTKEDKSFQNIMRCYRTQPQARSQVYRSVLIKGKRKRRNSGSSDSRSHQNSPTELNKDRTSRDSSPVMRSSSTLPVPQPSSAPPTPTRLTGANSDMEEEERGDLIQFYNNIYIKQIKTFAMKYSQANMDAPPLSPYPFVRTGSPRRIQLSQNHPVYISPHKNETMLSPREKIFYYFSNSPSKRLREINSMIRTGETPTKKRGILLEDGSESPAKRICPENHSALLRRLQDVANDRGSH

These are yes or no findings as the source states them, for the method shown. In cells and extracts the contact can be indirect. Some entries that bind do so weakly or less than the wild type.

The assay concerns the target T1, SMYD3 (endogenous) (human (endogenous in HT-29, HGC-27, HLC-19, CAPAN-1)) (UniProt Q9H7B4).
T1 sequence: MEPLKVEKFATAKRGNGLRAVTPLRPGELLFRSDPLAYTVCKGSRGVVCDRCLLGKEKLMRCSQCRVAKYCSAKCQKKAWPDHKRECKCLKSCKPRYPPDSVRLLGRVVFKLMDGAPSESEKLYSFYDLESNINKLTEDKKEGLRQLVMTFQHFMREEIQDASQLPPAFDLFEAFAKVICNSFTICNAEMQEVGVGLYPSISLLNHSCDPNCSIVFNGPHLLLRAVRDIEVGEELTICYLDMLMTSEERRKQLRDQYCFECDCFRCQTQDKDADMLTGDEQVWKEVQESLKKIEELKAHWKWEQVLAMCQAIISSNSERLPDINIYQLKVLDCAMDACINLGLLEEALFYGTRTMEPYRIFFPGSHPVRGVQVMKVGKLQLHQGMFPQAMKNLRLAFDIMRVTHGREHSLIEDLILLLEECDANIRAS
Briefly: co-IP; endogenous proteins in whole-cell lysates (HT-29; for some pairs also HGC-27, HLC-19, CAPAN-1); IP with antibody to SMYD3 or to the partner on Dynabeads Protein A or G, immunoblot; lysis buffer 50 mM Tris-HCl pH 7.4, 5 mM EDTA, 250 mM NaCl, 1% Triton X-100; for phospho-MET cells serum-starved 24 h, then 10 ng/ml HGF for 2 h. (In general: In western blotting, separated proteins are transferred to a membrane and probed.)

Consider “Bloom syndrome protein (endogenous) (from UniProt P54132 1-1417)”, for which the binding result was “binds”.
To “MET, hepatocyte growth factor (HGF) receptor (endogenous) (from UniProt P08581 25-1390)” belongs “binds”; to “p130 (RBL2) (endogenous) (from UniProt Q08999 1-1139)”, “binds”.
For the substance “phospho-MET (endogenous, after HGF) (from UniProt P08581 25-1390) (receptor)”, the binding entry is given as “binds”.
